{"source": "patent US20210085662A1", "about": "“METHODS AND PHARMACEUTICAL COMPOSITIONS FOR REDUCING PERSISTENCE AND EXPRESSION OF EPISOMAL VIRUSES” (INSERM (Institut National de la Santé et de la Recherche …, priority 2017, published 2021)", "system": "latently HIV-infected clones 8.4 and 15.4", "assay": "Reactivation of latent provirus in J-Lat clones 8.4 and 15.4", "note": "For at least one compound, name, drawing or mass did not settle the structure."}
{"smiles": "CC[C@H]1[C@@H](O)[C@@H]2[C@H](CC[C@]3(C)[C@@H]([C@H](C)CCC(=O)O)CC[C@@H]23)[C@@]2(C)CC[C@@H](O)C[C@@H]12", "note": "[6-ECDCA, 6-ethyl-cheno-deoxycholic acide]", "values": [{"measurement": "GFP+ reactivated cells", "setting": "5 μM with TNFα 0.5 ng/mL, versus TNFα alone, detectable at day 1", "result": "higher and earlier reactivation"}, {"measurement": "Production of p24", "setting": "5 μM with TNFα, versus TNFα alone", "result": "also increased"}, {"measurement": "cell death rates", "setting": "clone 8.4, 5 μM with TNFα", "result": "could hardly be detected"}, {"measurement": "cell death rates", "setting": "clone 15.4, 5 μM with TNFα", "result": "increased cell death rates"}]}
